Publication PMC9574505
These are yes or no findings as the source states them, for the method shown. Binding can be weak; no strength is given.

Molecular target: N-terminus of LhcB2 precursor protein (amino acid residues 1-117) (Arabidopsis thaliana)
Assay: two-hybrid; Matchmaker Gold Yeast Two-Hybrid System (Clontech); AtFtsH12 domains in the prey vector pGADT7, LhcB2 N-terminus in the bait vector pGBKT7; double dropout SD (-Leu -Trp), then quadruple dropout SD (-Ade -His -Leu -Trp), with 20 mg/l X-alpha-Gal for high stringency

binding: binds
B1: loop domain of AtFtsH12 (amino acid residues 175-432) (domain or fragment, UniProt Q9SAJ3 175-432)
chain: QAPRVERERRELTESFMEALIPEPSPGNIEKFKRNMWRKATPKGLKLKRFIEAPDGTLVHDSSYVGENAWDDDLETTEGSLKKIIGRNARIQTEAKKKLSQDLGVSGEIGDSVGNWRERLATWKEMLEREKLSEQLNSSAAKYVVEFDMKEVEKSLREDVIGRTSETEGTRALWISKRWWRYRPKLPYTYFLQKLDSSEVAAVVFTEDLKRLYVTMKEGFPLEYIVDIPLDPYLFETICNAGVEVDLLQKRQIHYFMK
